Reference: patent publication US9242941B2, “Alkyl, fluoroalkyl-1,4-benzodiazepinone compounds” (BRISTOL-MYERS SQUIBB COMPANY, priority 2012, dated 2016)
Some of these results come from one statement about several compounds together.

Experiments:
human Notch 1 = assay: Notch-CBF1 Transactivation Assay (Notch 1); assay type: cell-based; details: read-out: Notch 1 IC50, luciferase, transfected HeLa cells
From the text: (§1) Notch-CBF1 Transactivation Assay
(§2) The Notch-CBF1 (C-promoter binding factor I) cell based transactivation assay is based on the ability of the released Notch intracellular domain fragments (NICDs) to function as transcription factors in conjunction with CBF1 and other nuclear factors. Luciferase assays were used to measure the antagonism of Notch-CBF1 transcriptional activity. HeLa cervical cancer cells are transiently co-transfected with pCDNA3.1/Hygro plasmids containing truncated Notch 1, Notch 2, Notch 3, or Notch 4 receptors and a PGL3 luciferase reporter vector containing 4 copies of CBF1 binding site. The cells were then tested for Notch-CBF1 activity in the absence or presence of test compounds. HeLa cells, maintained in DMEM (high glucose with HEPES), 1× glutamine/penicillin/streptomycin and 10% Fetal Bovine serum, were transiently transfected in a T175 Flask (4.5×10^6 cells/flask) using the Monster Transfection Kit (Minis #MIR2906) according to manufacturers specifications. Table 13 denotes respective DNA quantity for the transfections.
(§3) Assay media (5 μL) containing test compounds in final concentrations ranging from 5 μM to 8.4×10^−5 μM (3 fold serial dilutions) were added to the cells and the cell plates were then incubated for 18 hours at 37° C. and 5% CO2. Control wells contained DMSO vehicle (total counts) or 0.5 μM of an in-house small molecule inhibitor (background counts). Duplicates were used for each sample. Luciferase activity was measured after a 20-minute incubation with 50 μl STEADY-GLO® luciferase reagents according to manufacturer's specifications (Promega, Cat. #E2550) and analyzed by Envision plate reader (PerkinElmer, Boston, Mass.).
(§4) The antagonist effect of compounds was expressed as 100×[1−(average sample−average background)/(average total−average background)] where sample is the luciferase activity in the presence of test compound, background is equal to the luciferase activity in the presence of the small molecule inhibitor control and the total is signal induced in DMSO wells.

human Notch 3 = assay: Notch-CBF1 Transactivation Assay (Notch 3); assay type: cell-based; details: read-out: Notch 3 IC50, luciferase, transfected HeLa cells
From the text: as §1, §2, §3, §4

Structure (SMILES) | IC50 (human Notch 1) [µM] | IC50 (human Notch 3) [µM]
Cc1cccc2c1NC(=O)[C@@H](NC(=O)[C@H](CCC(F)(F)F)[C@H](CC1CC1)C(N)=O)N=C2c1ccccc1 [Example 11, (2R,3S)-3-(Cyclopropylmethyl)-N-((3S)-9-methyl-2-oxo-5-phenyl-2,3-dihydro-1H-1,4-benzodiazepin-3-yl)-2-(3,3,3-trifluoropropyl)succinamide] | ≤ 0.0161 | ≤ 0.0283
COc1cccc2c1NC(=O)[C@@H](NC(=O)[C@H](CCC(F)(F)F)[C@H](CC1CC1)C(N)=O)N=C2c1cccc(C)c1 [Example 31, (2R,3S)-3-(Cyclopropylmethyl)-N-((3S)-9-methoxy-5-(3-methylphenyl)-2-oxo-2,3-dihydro-1H-1,4-benzodiazepin-3-yl)-2-(3,3,3-trifluoropropyl)succinamide] | ≤ 0.0161 | ≤ 0.0283
NC(=O)[C@@H](CC1CC1)[C@@H](CCC(F)(F)F)C(=O)N[C@H]1N=C(c2ccccc2)c2cccc(C3CC3)c2NC1=O [Example 14, (2R,3S)-3-(Cyclopropylmethyl)-N-(9-cyclopropyl-2-oxo-5-phenyl-2,3-dihydro-1H-1,4-benzodiazepin-3-yl)-2-(3,3,3-trifluoropropyl)succinamide] | ≤ 0.0161 | ≤ 0.0283
Cc1cccc2c1NC(=O)[C@@H](NC(=O)[C@H](CCC(F)(F)F)[C@H](CC1CC1)C(N)=O)N=C2c1cccc(C(F)(F)F)c1 [Example 9, (2R,3S)-3-(Cyclopropylmethyl)-N-((3S)-9-methyl-2-oxo-5-(3-(trifluoromethyl)phenyl)-2,3-dihydro-1H-1,4-benzodiazepin-3-yl)-2-(3,3,3-trifluoropropyl)succinamide] | ≤ 0.0161 | ≤ 0.0283
CCC[C@H](C(N)=O)[C@@H](CCC(F)(F)F)C(=O)N[C@H]1N=C(c2ccc(Cl)cc2)c2cccc(Cl)c2NC1=O [Example 28, (2R,3S)—N-((3S)-9-Chloro-5-(4-chlorophenyl)-2-oxo-2,3-dihydro-1H-1,4-benzodiazepin-3-yl)-3-propyl-2-(3,3,3-trifluoropropyl)succinamide] | ≤ 0.0161 | ≤ 0.0283
COc1cccc2c1NC(=O)[C@@H](NC(=O)[C@H](CCC(F)(F)F)[C@H](CC1CC1)C(N)=O)N=C2c1ccccc1 [Example 38, (2R,3S)-3-(Cyclopropylmethyl)-N-((3S)-9-methoxy-2-oxo-5-phenyl-2,3-dihydro-1H-1,4-benzodiazepin-3-yl)-2-(3,3,3-trifluoropropyl)succinamide] | ≤ 0.0161 | ≤ 0.0283
NC(=O)[C@@H](CC1CC1)[C@@H](CCC(F)(F)F)C(=O)N[C@H]1N=C(c2ccc(Cl)cc2)c2cccc(Cl)c2NC1=O [Example 27, (2R,3S)—N-((3S)-9-Chloro-5-(4-chlorophenyl)-2-oxo-2,3-dihydro-1H-1,4-benzodiazepin-3-yl)-3-(cyclopropylmethyl)-2-(3,3,3-trifluoropropyl)succinamide] | ≤ 0.0161 | ≤ 0.0283
NC(=O)[C@@H](CC1CC1)[C@@H](CCC(F)(F)F)C(=O)N[C@H]1N=C(c2cccc(Cl)c2)c2cccc(Cl)c2NC1=O [Example 26, (2R,3S)—N-((3S)-9-Chloro-5-(3-chlorophenyl)-2-oxo-2,3-dihydro-1H-benzo[e][1,4]diazepin-3-yl)-3-(cyclopropylmethyl)-2-(3,3,3-trifluoropropyl)succinamide] | ≤ 0.0161 | ≤ 0.0283
CCC[C@H](C(N)=O)[C@@H](CCC(F)(F)F)C(=O)N[C@H]1N=C(c2ccccc2)c2cccc(C#N)c2NC1=O [Example 32, (2R,3S)—N-((3S)-9-Cyano-2-oxo-5-phenyl-2,3-dihydro-1H-1,4-benzodiazepin-3-yl)-3-propyl-2-(3,3,3-trifluoropropyl)succinamide] | ≤ 0.0161 | ≤ 0.0283
Cc1cc(F)cc(C2=N[C@H](NC(=O)[C@H](CCC(F)(F)F)[C@H](CC3CC3)C(N)=O)C(=O)Nc3c(Cl)cccc32)c1 [Example 3, (2R,3S)—N-((3S)-9-Chloro-5-(3-fluoro-5-methylphenyl)-2-oxo-2,3-dihydro-1H-benzo[e][1,4]diazepin-3-yl)-3-(cyclopropylmethyl)-2-(3,3,3-trifluoropropyl)succinamide] | ≤ 0.0161 | ≤ 0.0283
CCC[C@H](C(N)=O)[C@@H](CCC(F)(F)F)C(=O)N[C@H]1N=C(c2ccccc2)c2cccc(C(F)(F)F)c2NC1=O [Example 35, (2R,3S)—N-((3S)-2-Oxo-5-phenyl-9-(trifluoromethyl)-2,3-dihydro-1H-1,4-benzodiazepin-3-yl)-3-propyl-2-(3,3,3-trifluoropropyl)succinamide] | ≤ 0.0161 | ≤ 0.0283
Cc1cccc2c1NC(=O)[C@@H](NC(=O)[C@H](CCC(F)(F)F)[C@H](CC1CC1)C(N)=O)N=C2c1ccc(F)cc1 [Example 12, (2R,3S)-3-(Cyclopropylmethyl)-N-((3S)-5-(4-fluorophenyl)-9-methyl-2-oxo-2,3-dihydro-1H-1,4-benzodiazepin-3-yl)-2-(3,3,3-trifluoropropyl)succinamide] | ≤ 0.0161 | ≤ 0.0283
NC(=O)[C@@H](CC1CC1)[C@@H](CCC(F)(F)F)C(=O)N[C@H]1N=C(c2ccccc2)c2cccc(Cl)c2NC1=O [Example 42, (2R,3S)—N-((3S)-9-Chloro-2-oxo-5-phenyl-2,3-dihydro-1H-1,4-benzodiazepin-3-yl)-3-(cyclopropylmethyl)-2-(3,3,3-trifluoropropyl)succinamide] | ≤ 0.0161 | ≤ 0.0283
COc1cccc(C2=N[C@H](NC(=O)[C@H](CCC(F)(F)F)[C@H](CC3CC3)C(N)=O)C(=O)Nc3c(F)cccc32)c1 [Example 22, (2R,3S)-3-(Cyclopropylmethyl)-N-((3S)-9-fluoro-5-(3-methoxyphenyl)-2-oxo-2,3-dihydro-1H-1,4-benzodiazepin-3-yl)-2-(3,3,3-trifluoropropyl)succinamide] | ≤ 0.0161 | ≤ 0.0283
NC(=O)[C@@H](CC1CC1)[C@@H](CCC(F)(F)F)C(=O)N[C@H]1N=C(c2ccccc2)c2cccc(C(F)(F)F)c2NC1=O [Example 36, (2R,3S)-3-(Cyclopropylmethyl)-N-((3S)-2-oxo-5-phenyl-9-(trifluoromethyl)-2,3-dihydro-1H-1,4-benzodiazepin-3-yl)-2-(3,3,3-trifluoropropyl)succinamide] | ≤ 0.0161 | ≤ 0.0283
NC(=O)[C@@H](CC1CC1)[C@@H](CCC(F)(F)F)C(=O)N[C@H]1N=C(c2cccc(Cl)c2)c2cccc(F)c2NC1=O [Example 24, (2R,3S)—N-((3S)-5-(3-Chlorophenyl)-9-fluoro-2-oxo-2,3-dihydro-1H-1,4-benzodiazepin-3-yl)-3-(cyclopropylmethyl)-2-(3,3,3-trifluoropropyl)succinamide] | ≤ 0.0161 | ≤ 0.0283
CCC[C@H](C(N)=O)[C@@H](CCC(F)(F)F)C(=O)N[C@H]1N=C(c2ccccc2)c2cccc(O)c2NC1=O [Example 41, (2R,3S)—N-((3S)-9-Hydroxy-2-oxo-5-phenyl-2,3-dihydro-1H-1,4-benzodiazepin-3-yl)-3-propyl-2-(3,3,3-trifluoropropyl)succinamide] | ≤ 0.0161 | ≤ 0.0283
Cc1cccc(C2=N[C@H](NC(=O)[C@H](CCC(F)(F)F)[C@H](CC3CC3)C(N)=O)C(=O)Nc3c(O)cccc32)c1 [Example 8, (2R,3S)-3-(Cyclopropylmethyl)-N-((3S)-9-hydroxy-5-(3-methylphenyl)-2-oxo-2,3-dihydro-1H-1,4-benzodiazepin-3-yl)-2-(3,3,3-trifluoropropyl)succinamide] | ≤ 0.0161 | ≤ 0.0283
NC(=O)[C@@H](CC1CC1)[C@@H](CCC(F)(F)F)C(=O)N[C@H]1N=C(c2ccccc2)c2cccc(OC3CC3)c2NC1=O [Example 6, (2R,3S)-3-(Cyclopropylmethyl)-N-((3S)-9-(cyclopropyloxy)-2-oxo-5-phenyl-2,3-dihydro-1H-1,4-benzodiazepin-3-yl)-2-(3,3,3-trifluoropropyl)succinamide] | ≤ 0.0161 | ≤ 0.0283
NC(=O)[C@@H](CC1CC1)[C@@H](CCC(F)(F)F)C(=O)N[C@H]1N=C(c2ccccc2)c2cccc(F)c2NC1=O [Example 1, (2R,3S)-3-(Cyclopropylmethyl)-N-((3S)-9-fluoro-2-oxo-5-phenyl-2,3-dihydro-1H-1,4-benzodiazepin-3-yl)-2-(3,3,3-trifluoropropyl)succinamide] | ≤ 0.0161 | ≤ 0.0283
COc1cccc2c1NC(=O)[C@@H](NC(=O)[C@H](CCC(F)(F)F)[C@H](CC1CC1)C(N)=O)N=C2c1cccc(F)c1 [Example 4, (2R,3S)-3-(Cyclopropylmethyl)-N-((3S)-5-(3-fluorophenyl)-9-methoxy-2-oxo-2,3-dihydro-1H-1,4-benzodiazepin-3-yl)-2-(3,3,3-trifluoropropyl)succinamide] | ≤ 0.0161 | ≤ 0.0283
